Where two headings read alike, the source gives them in different places. No constants are given. Whether binding was seen depends on the method and setting. In cells and extracts the contact can be indirect. These calls come from enrichment with a bait or labelling near it, and not all partners need be listed. Where a sequence is shown, tags or fusion partners need not be part of it.
T1: His-p47-FLAG (UniProt O35987)
T1 sequence: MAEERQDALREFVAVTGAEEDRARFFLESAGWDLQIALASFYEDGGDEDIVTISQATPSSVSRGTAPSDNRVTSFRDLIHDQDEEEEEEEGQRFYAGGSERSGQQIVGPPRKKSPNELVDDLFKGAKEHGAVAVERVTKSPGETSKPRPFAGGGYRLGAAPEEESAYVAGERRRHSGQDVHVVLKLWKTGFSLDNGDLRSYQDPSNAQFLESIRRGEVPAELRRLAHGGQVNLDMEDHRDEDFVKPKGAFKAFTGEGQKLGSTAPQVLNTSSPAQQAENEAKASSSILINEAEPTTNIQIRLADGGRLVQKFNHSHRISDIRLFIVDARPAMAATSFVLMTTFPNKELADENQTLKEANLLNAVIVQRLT

The chains behind the UniProt entries cited, without tags or fusion partners.
UniProt P14735: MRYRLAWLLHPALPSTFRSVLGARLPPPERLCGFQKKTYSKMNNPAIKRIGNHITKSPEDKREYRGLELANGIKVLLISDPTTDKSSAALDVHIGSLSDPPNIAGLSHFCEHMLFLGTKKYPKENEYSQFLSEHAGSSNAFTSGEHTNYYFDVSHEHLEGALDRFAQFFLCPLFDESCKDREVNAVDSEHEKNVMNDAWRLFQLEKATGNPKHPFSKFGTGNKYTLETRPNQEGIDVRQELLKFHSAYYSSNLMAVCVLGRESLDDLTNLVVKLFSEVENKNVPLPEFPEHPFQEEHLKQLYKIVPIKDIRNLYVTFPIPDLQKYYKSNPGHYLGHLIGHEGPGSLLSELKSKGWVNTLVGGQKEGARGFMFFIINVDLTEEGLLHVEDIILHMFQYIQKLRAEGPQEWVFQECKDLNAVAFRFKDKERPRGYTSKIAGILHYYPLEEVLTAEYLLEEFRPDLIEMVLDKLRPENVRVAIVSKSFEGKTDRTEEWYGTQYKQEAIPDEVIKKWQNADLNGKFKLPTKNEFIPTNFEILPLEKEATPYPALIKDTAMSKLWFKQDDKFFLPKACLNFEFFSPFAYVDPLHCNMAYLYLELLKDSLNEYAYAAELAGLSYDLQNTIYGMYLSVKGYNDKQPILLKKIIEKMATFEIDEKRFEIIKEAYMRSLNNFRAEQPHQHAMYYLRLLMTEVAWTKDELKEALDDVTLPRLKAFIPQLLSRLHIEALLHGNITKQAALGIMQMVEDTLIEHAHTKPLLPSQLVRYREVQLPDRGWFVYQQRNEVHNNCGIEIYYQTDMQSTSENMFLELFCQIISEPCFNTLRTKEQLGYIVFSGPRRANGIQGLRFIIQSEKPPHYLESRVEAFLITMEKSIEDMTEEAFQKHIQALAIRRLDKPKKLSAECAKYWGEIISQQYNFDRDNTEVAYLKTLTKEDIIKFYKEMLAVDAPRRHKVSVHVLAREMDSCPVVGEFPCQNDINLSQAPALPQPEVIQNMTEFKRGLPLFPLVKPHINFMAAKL
UniProt P35579: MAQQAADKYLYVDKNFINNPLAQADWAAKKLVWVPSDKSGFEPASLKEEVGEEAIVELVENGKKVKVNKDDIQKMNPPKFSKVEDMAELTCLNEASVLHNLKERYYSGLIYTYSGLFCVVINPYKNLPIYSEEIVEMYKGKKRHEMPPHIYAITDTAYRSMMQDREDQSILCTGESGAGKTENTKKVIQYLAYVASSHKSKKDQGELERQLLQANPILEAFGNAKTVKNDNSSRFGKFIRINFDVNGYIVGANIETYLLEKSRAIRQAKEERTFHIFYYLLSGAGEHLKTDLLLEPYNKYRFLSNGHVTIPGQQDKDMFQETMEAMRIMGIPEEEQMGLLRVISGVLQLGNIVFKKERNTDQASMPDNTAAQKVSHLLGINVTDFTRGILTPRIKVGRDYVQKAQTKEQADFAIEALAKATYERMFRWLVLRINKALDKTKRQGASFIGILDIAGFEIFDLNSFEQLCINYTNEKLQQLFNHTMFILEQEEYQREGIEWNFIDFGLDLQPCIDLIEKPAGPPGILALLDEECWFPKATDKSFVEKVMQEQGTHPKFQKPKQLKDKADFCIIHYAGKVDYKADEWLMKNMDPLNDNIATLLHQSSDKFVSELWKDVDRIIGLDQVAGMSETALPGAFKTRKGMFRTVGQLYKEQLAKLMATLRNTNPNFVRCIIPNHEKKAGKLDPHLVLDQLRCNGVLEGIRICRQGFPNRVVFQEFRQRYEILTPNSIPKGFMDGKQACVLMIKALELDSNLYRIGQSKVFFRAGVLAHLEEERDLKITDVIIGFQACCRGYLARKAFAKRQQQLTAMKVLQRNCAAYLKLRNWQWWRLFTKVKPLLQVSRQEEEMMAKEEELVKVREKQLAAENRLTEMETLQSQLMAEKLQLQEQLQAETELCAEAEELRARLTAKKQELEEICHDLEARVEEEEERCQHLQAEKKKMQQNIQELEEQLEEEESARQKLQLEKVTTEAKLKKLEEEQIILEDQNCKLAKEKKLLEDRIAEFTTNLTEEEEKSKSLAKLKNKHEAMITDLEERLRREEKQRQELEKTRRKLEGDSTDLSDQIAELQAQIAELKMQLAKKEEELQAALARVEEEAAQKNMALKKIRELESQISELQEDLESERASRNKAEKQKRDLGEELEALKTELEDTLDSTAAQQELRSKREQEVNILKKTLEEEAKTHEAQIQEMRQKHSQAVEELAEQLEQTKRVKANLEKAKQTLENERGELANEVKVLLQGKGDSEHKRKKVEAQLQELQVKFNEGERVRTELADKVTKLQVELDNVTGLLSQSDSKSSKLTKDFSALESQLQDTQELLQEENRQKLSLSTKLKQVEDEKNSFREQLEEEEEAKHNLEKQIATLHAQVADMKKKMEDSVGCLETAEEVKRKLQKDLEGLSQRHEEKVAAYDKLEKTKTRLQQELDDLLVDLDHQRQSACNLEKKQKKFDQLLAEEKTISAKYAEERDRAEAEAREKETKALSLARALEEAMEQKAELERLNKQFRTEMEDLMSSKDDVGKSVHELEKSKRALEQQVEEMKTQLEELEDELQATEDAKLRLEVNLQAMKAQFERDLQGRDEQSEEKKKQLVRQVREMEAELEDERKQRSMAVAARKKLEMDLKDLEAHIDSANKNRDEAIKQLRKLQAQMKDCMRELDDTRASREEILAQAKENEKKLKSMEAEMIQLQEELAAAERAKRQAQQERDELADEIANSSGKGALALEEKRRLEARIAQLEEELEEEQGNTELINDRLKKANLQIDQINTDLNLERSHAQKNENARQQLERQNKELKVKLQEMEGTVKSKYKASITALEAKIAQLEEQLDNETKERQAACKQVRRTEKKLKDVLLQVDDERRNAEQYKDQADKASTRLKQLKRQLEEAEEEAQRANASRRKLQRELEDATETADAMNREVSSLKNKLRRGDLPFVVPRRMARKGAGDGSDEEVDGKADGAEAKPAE


How the values were obtained:
[1] = target: T1, His-p47-FLAG; test: affinity purification with mass spectrometry; eluates of the p47 co-IP with ADP-BeFx against mock co-IPs without His-p47-FLAG (n = 3); label-free quantitation, SAINT; only the target purified
[2] = target: T1, His-p47-FLAG; test: as above; remark: listed apart in the source

Row | binding [1] | binding [2] | Molecule
1 | binds |  | insulin-degrading enzyme (from UniProt P14735 1-1019)
2 | binds |  | myosin-9 (from UniProt P35579 1-1960)
3 |  | binds | UBXN1 (protein, UniProt Q04323 1-297) MAELTALESLIEMGFPRGRAEKALALTGNQGIEAAMDWLMEHEDDPDVDEPLETPLGHILGREPTSSEQGGLEGSGSAAGEGKPALSEEERQEQTKRMLELVAQKQREREEREEREALERERQRRRQGQELSAARQRLQEDEMRRAAEERRREKAEELAARQRVREKIERDKAERAKKYGGSVGSQPPPVAPEPGPVPSSPSQEPPTKREYDQCRIQVRLPDGTSLTQTFRAREQLAAVRLYVELHRGEELGGGQDPVQLLSGFPRRAFSEADMERPLQELGLVPSAVLIVAKKCPS
4 |  | binds | UBXN7 (protein, UniProt O94888 1-489) MAAHGGSAASSALKGLIQQFTTITGASESVGKHMLEACNNNLEMAVTMFLDGGGIAEEPSTSSASVSTVRPHTEEEVRAPIPQKQEILVEPEPLFGAPKRRRPARSIFDGFRDFQTETIRQEQELRNGGAIDKKLTTLADLFRPPIDLMHKGSFETAKECGQMQNKWLMINIQNVQDFACQCLNRDVWSNEAVKNIIREHFIFWQVYHDSEEGQRYIQFYKLGDFPYVSILDPRTGQKLVEWHQLDVSSFLDQVTGFLGEHGQLDGLSSSPPKKCARSESLIDASEDSQLEAAIRASLQETHFDSTQTKQDSRSDEESESELFSGSEEFISVCGSDEEEEVENLAKSRKSPHKDLGHRKEENRRPLTEPPVRTDPGTATNHQGLPAVDSEILEMPPEKADGVVEGIDVNGPKAQLMLRYPDGKREQITLPEQAKLLALVKHVQSKGYPNERFELLTNFPRRKLSHLDYDITLQEAGLCPQETVFVQERN
5 |  | binds | ornithine aminotransferase (protein, UniProt P04181 26-439) TSVATKKTVQGPPTSDDIFEREYKYGAHNYHPLPVALERGKGIYLWDVEGRKYFDFLSSYSAVNQGHCHPKIVNALKSQVDKLTLTSRAFYNNVLGEYEEYITKLFNYHKVLPMNTGVEAGETACKLARKWGYTVKGIQKYKAKIVFAAGNFWGRTLSAISSSTDPTSYDGFGPFMPGFDIIPYNDLPALERALQDPNVAAFMVEPIQGEAGVVVPDPGYLMGVRELCTRHQVLFIADEIQTGLARTGRWLAVDYENVRPDIVLLGKALSGGLYPVSAVLCDDDIMLTIKPGEHGSTYGGNPLGCRVAIAALEVLEEENLAENADKLGIILRNELMKLPSDVVTAVRGKGLLNAIVIKETKDWDAWKVCLRLRDNGLLAKPTHGDIIRFAPPLVIKEDELRESIEIINKTILSF

Reference: PMC9098461
